Experimental data: article PMC11211331
These are yes or no findings as the source states them, for the method shown. In cells and extracts the contact can be indirect. Some results given as binding are weak or reduced against the parent protein; the word gives no strength. Blank lines part the entries; values can stand above or below the binder they belong to.

The chains behind the UniProt entries cited, without tags or fusion partners.
UniProt O54889: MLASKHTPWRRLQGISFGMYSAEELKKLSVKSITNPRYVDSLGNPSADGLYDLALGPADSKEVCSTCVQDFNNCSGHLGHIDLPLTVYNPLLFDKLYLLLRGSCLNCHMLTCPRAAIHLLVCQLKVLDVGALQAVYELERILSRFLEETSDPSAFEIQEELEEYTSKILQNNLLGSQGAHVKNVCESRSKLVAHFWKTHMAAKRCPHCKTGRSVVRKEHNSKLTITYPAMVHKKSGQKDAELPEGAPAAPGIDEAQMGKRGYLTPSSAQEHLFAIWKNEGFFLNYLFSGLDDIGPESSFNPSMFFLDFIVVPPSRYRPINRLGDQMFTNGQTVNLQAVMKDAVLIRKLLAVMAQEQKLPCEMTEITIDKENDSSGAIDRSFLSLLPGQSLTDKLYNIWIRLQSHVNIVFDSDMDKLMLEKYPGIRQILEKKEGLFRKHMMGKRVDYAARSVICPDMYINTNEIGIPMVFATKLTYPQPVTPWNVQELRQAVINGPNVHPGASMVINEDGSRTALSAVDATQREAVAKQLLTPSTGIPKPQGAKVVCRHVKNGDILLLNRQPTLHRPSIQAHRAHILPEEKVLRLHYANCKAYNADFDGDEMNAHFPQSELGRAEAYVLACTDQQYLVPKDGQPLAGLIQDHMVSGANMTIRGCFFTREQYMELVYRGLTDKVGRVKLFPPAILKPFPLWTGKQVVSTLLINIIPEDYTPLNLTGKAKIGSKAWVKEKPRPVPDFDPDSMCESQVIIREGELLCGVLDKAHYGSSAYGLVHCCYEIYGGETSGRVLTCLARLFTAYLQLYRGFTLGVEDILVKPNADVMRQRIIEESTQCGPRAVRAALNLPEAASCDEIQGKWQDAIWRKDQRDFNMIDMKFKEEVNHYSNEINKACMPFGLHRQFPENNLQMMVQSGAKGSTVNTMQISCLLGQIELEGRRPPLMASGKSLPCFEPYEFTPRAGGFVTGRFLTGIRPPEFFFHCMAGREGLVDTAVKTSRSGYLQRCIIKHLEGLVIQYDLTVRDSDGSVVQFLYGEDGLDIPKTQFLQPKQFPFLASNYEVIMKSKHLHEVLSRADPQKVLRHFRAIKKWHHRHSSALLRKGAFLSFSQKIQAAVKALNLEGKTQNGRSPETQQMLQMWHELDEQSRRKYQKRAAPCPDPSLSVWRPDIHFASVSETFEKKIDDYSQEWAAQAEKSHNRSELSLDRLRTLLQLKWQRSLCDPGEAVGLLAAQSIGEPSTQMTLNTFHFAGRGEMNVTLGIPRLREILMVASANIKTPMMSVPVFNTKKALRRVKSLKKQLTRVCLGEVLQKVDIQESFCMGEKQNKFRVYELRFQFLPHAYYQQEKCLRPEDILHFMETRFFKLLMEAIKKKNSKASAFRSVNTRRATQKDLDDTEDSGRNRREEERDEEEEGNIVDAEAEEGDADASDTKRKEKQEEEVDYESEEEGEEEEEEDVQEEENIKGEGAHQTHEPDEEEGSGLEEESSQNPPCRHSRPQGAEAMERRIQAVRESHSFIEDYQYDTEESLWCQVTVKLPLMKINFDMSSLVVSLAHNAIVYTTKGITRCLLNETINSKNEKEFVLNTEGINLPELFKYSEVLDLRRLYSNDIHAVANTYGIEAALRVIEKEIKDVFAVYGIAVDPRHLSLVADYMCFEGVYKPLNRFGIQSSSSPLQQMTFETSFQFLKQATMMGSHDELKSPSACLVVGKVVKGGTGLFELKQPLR

Assays:
[1] = biological target: RPA194 (a subunit of Pol I) (rat (endogenous in cortical neurons)) (UniProt O54889); assay: co-IP; Pol I immunoprecipitated with an antibody against RPA194 from nuclear extracts of cortical neurons infected with shCoro2B lentivirus or scramble control for 5 days; UBF and TAFIp110 detected on immunoblots
[2] = biological target: T1, upstream binding factor (endogenous, cortical neurons) (rat (endogenous in cortical neurons)) (UniProt P25977); assay: co-IP; UBF immunoprecipitated from nuclear extracts of cortical neurons cultured for 14 days; mouse IgG as negative control; antibody overnight at 4 °C, protein G beads; western blot
T1 sequence: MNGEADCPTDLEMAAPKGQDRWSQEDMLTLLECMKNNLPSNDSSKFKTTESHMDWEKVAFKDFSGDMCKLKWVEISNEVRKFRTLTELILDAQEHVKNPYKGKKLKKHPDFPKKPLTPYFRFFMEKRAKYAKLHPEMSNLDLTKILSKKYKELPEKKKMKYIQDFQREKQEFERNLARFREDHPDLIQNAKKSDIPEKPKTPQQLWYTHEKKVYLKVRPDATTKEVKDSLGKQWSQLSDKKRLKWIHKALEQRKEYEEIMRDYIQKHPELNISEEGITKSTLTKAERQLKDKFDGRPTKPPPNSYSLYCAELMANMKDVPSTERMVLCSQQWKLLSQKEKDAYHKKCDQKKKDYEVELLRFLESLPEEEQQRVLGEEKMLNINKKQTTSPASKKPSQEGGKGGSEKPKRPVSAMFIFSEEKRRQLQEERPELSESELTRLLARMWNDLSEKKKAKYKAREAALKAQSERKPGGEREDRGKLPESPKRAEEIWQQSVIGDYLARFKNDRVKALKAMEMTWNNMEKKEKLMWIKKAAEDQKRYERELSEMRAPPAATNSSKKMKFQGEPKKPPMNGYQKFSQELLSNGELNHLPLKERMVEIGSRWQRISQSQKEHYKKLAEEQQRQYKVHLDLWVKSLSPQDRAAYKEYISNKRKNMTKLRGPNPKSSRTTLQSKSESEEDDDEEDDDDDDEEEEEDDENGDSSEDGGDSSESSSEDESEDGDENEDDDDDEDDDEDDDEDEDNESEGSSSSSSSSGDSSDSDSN

binding [1]: binds
B1: TAFIp110 (a subunit of SL-1 complex) (protein, UniProt Q6P773 1-842)
chain: MDFPSTLRPSLFMAGPLGMTDGPDLSFMCSWRDALTLPGAQPQNCRDQTSSFAKNLLWEPSTPGPLPLVPPGPDPWDPGLAAQDFLFRGGHYYQYQSRVVLDVTEQLSRFLWDHGDIAFAPLGKLMLENFRLEGNRGYSKKVTIVSVKRLLQDLGGHQPWGCPWASLSRRLRRFSILGGPVLSRSVSLLMGRLLHEELATRWEQLLMDEAFTGGALAWLPGRTARAGQLVYPSGGALDKLYFQEVSVNSGGNPRVLEDPGHIQLRGPVRQVVTSTVQGETLLAVRSDYHCAVWKIDKQEPPAPLQVLQVEKGATGISLSPHLSGELAICSRSGTVCLWTPQDGLQTIYKDPETLAFRDPSPWRWADFTAHPRVLTVGDRTGVKMVDIQGPPGCGLLLFCAGAEAACQKGERVLLAQYLGQPGPASTSLHLICTQFSIYLMDERLPLVPMLKWDHGLPSAPLLARLLPPASPGYPRPLLLGGQGGQVQLLHIAGEGTSIPQLAGPPQSLPSITDSLSAFPLLEPKRQQQLQERLEAPVIGLAAAPPCASAPGLLLFQLSAAGDVFYQHLRIQQTSSLREPDHPAPERPASRAAAPPVDQGSTPSWTSRASARCSRWLEALMELSPTNPVWAAPTFSHRRFLGHMERQKSQETLAQKLQAAMAKGQLLRPGDLGTLPKAEPPPAPQCSQQDELTERLTKAWEGQAAAWWKRHQDQTSGSQRQSKRPKRRTQLSSTFSSFTSYMDSPDASSAPHSQDLSNSEACPQPPRTPPSQELTQELWAQGVQHERRQTLRDYMAKLPLQDNPGPVATPPSQTSSRQTRSFRQQTPVLSGSHPPRKKPRMGF

binding [2]: binds
B2: coronin 2B (endogenous, cortical neurons) (protein, UniProt F1LMV9 1-480)
chain: MTVTKMSWRPQYRSSKFRNVYGKVANREHCFDGIPITKNVHDNHFCAVNARFLAIVTESAGGGSFLVIPLEQTGRIEPNYPKVCGHQGNVLDIKWNPFIDNIIASCSEDTSVRIWEIPEGGLKRNMTEALLELHGHSRRVGLVEWHPTTNNILFSAGYDYKVLIWNLDIGEPVKMIDCHTDVILCMSFNTDGSLLTTTCKDKKLRVIEPRSGRVLQEANCKNHRVNRVVFLGNMKRLLTTGVSRWNTRQIALWDQEDLSMPMIEEEIDGLSGLLFPFYDADTHMLYLAGKGDGNIRYYEISTEKPYLSYLMEFRSPAPQKGLGVMPKHGLDVSACEVFRFYKLVTLKGLIEPISMIVPRRSDSYQEDIYPMTPGTEPALTPDEWLGGVNRDPVLMSLKEGYKKSSKVVFKAPIREKKSVVVNGIDLLENVPPRTENELLRMFFRQQDEIRRLKEELAQKDIRLRQLQLELKNLRNNPKNC

binding [1]: binds
B3: upstream binding factor (endogenous, cortical neurons) (protein, UniProt P25977 1-764)
chain: T1 sequence
